# Data published in PubChem BioAssay AID1347415 (National Center for Advancing Translational Sciences (NCATS), 2020).
# The shares of active, inactive and inconclusive entries below differ from those in the screen. Where the call is inconclusive, the potency comes from a doubtful curve fit. The source made the active and inactive calls. Calls come from the whole dose curve; as a rule, active = well fitted inhibition curve with a large enough effect; inconclusive = small, poorly fitted or top-dose-only effect; inactive = no such curve, though single readings can be large or run the other way.
# Assay: qHTS to identify inhibitors of the type 1 interferon - major histocompatibility complex class I in skeletal muscle: tertiary screen by RT-qPCR
# Conditions: C25cl48 human myoblasts, IFN-beta, HLA-B RT-qPCR, 24 h; series mostly up to 49.8 µM
# Description: Assay Submitter (PI): Travis B. Kinder Ph.D. & James Inglese Ph.D. Assay Development and Screening Technology Laboratory (ADST) National Center for Advancing Translational Sciences (NCATS), Rockville, MD National Institute of Health (NIH), Bethesda, Maryland Idiopathic inflammatory myopathies, collectively referred to as myositis, are a group of rare autoimmune diseases characterized by skeletal muscle inflammation, weakness, and usually accompanied by systemic pathologies of the skin, lungs, or vasculature. Current immunosuppressive therapies and glucocorticoids are often not curative and are accompanied by harsh side effects, especially in children with juvenile myositis. We initiated a drug repurposing and development program to identify more targeted, less toxic therapeutics to treat myositis. Although its cause is not known, muscle from a subset of patients have an abundance of the inflammatory type 1 interferon (IFN) and a down-stream product major histocompatibility complex class I (MHC class I), which are both thought to contribute to damage and weakness. We conducted quantitative high throughput screening (qHTS) on 6,576 compounds (4,679 unique) through a series of cell-based assays to identify those that inhibit the IFN-stimulated expression of MHC class I in muscle precursor cells (myoblasts). The compound identification and evaluation strategy utilized a primary screen with reporter-tagged MHC class I in genome-engineered myoblasts, ATP content counter screen for viability, HLA-ABC immunofluorescence secondary screen, and HLA-B RT-qPCR tertiary screen. To determine if active compounds identified by qHTS in HLA-B HiBit reporter cells, and confirmed by HLA-ABC immunofluorescence, can inhibit the transcription of HLA-B mRNA, compounds were assayed by RT-qPCR. Briefly, 62 compounds identified from primary, counter, and secondary screening as inhibitory with minimal cytotoxicity were dispensed into 384-well plates using acoustic dispensing in a 6-point, 1:7 titration with a high final concentration of 10 uM. Normal immortalized human myoblasts C25cl48 were added to the plate with 4.0 ng/ml human IFN-beta for 24 hours, and cells were harvested and assayed by the Cells-to-Ct kit with TaqMan assays (Thermo Fisher).
# PROTOCOL TABLE (as described by Inglese et al., 2007) SEQUENCE No. (e.g., 1, 2, 3, etc.); […] (e.g., Cells, Incubation, Reagent, etc.); VALUE; DESCRIPTION 0; Compounds; 150 nl; Follow-up compounds dispensed at 150 nl/well with Labcyte Echo 655 acoustic dispenser into one Corning white/clear bottom, high base TC 384-well plates (3765) 1a; Cells; 30 uL; Using a p200 manual pipette, seed 780 cells/well into 1 plate in 30 ul/well of iHSKM growth medium without dexamethasone into columns wells A1-A6. […]
row,SMILES,Potency
1,O=C(CCCCCCC(=O)Nc1ccccc1)NO,"inconclusive: 1840 nM [inhibitor, full curve, poor fit]"
2,CCc1cc(C(N)=O)ccc1-n1nc(C(C)C)c2c(-n3cnc(-c4cnn(C)c4)c3)ccnc21,"inconclusive: 368 nM [inhibitor, full curve, poor fit]"
3,C[C@]12C=CC(=O)C=C1CC[C@@H]1[C@@H]2[C@@H](O)C[C@@]2(C)[C@H]1CC[C@]2(O)C(=O)CO,inactive
4,Cc1sc2c(c1C)C(c1ccc(Cl)cc1)=N[C@@H](CC(=O)Nc1ccc(OCCOCCOCCOCCNc3cccc4c3C(=O)N(C3CCC(=O)NC3=O)C4=O)cc1)c1nnc(C)n1-2 (some centres not stated),"inconclusive: 65.4 nM [inhibitor, full curve, poor fit]"
5,C#Cc1cccc(Nc2ncnc3cc(OC)c(OCCCCCCC(=O)NO)cc23)c1,"inconclusive: 413 nM [inhibitor, full curve, poor fit]"
6,CC(C)(C)c1nc2c3cc[nH]c(=O)c3c3cc(F)ccc3c2[nH]1,"inconclusive: 1640 nM [inhibitor, full curve, poor fit]"
7,CC(C)c1nn(-c2c(Cl)cccc2Cl)c2nc(Cc3ccc(OCCO)cc3)[nH]c(=O)c12,"inconclusive: 36.8 nM [inhibitor, full curve, poor fit]"
8,Cc1ccc(NC(=O)NCc2ccc3c(c2)CN(C2CCC(=O)NC2=O)C3=O)cc1Cl (configuration not stated),inactive
9,CCS(=O)(=O)N1CCN(c2ccc(Nc3ncc(C(N)=O)c(NC4CC4)n3)cc2)CC1,active: 5830 nM
10,COc1nnc2ccc(N3CCC(c4ccc(OCCN5CCN(C)C(=O)[C@H]5C)cc4)CC3)nn12,"inconclusive: 232 nM [inhibitor, partial curve]"
11,Cn1cc(CNCC2CCN(c3ncc(C(=O)NO)cn3)CC2)c2ccccc21,"inconclusive: 23.2 nM [inhibitor, full curve, poor fit]"
12,Cc1ncsc1-c1ccc([C@H](C)NC(=O)[C@@H]2C[C@@H](O)CN2C(=O)[C@@H](NC(=O)COCCCOCCNC(=O)C[C@@H]2N=C(c3ccc(Cl)cc3)c3c(sc(C)c3C)-n3c(C)nnc32)C(C)(C)C)cc1,inactive
13,Cc1nc(Nc2n[nH]c3c2CN(C(=O)N[C@H](CN(C)C)c2ccccc2)C3(C)C)c2sccc2n1,active: 1840 nM
14,CC(=O)OCC(=O)[C@@]12OC(C)(C)O[C@@H]1C[C@H]1[C@@H]3C[C@H](F)C4=CC(=O)C=C[C@]4(C)[C@@]3(F)[C@@H](O)C[C@@]12C,inactive
15,CS[C@H]1SC[C@@H]2C(=O)N(C)[C@H](C(C)C)C(=O)OC[C@H](NC(=O)c3cnc4ccccc4n3)C(=O)N[C@H](C)C(=O)N(C)[C@H]1C(=O)N(C)[C@H](C(C)C)C(=O)OC[C@H](NC(=O)c1cnc3ccccc3n1)C(=O)N[C@H](C)C(=O)N2C,inactive
16,O=C(Nc1nc2cccc(-c3ccc(CN4CCS(=O)(=O)CC4)cc3)n2n1)C1CC1,active: 18400 nM
17,O=C(/C=C\n1cnc(-c2cc(C(F)(F)F)cc(C(F)(F)F)c2)n1)NNc1cnccn1,"inconclusive: 26000 nM [inhibitor, partial curve, poor fit]"
18,CC(C)C[C@H](NC(=O)[C@H](Cc1ccccc1)NC(=O)c1cnccn1)B(O)O,"inconclusive: 823 nM [inhibitor, partial curve]"
19,C=CCNC1=C2C[C@@H](C)C[C@H](OC)[C@H](O)[C@@H](C)/C=C(\C)[C@H](OC(N)=O)[C@@H](OC)/C=C\C=C(/C)C(=O)NC(=CC1=O)C2=O,inactive
20,CC1(C)CC(=O)c2c(C(F)(F)F)nn(-c3ccc(C(N)=O)c(NC4CCC(O)CC4)c3)c2C1 (configuration not stated),"inconclusive: 23.2 nM [inhibitor, full curve, poor fit]"
21,CC(C)C[C@H](NC(=O)CNC(=O)c1cc(Cl)ccc1Cl)B1OC(=O)CC(CC(=O)O)(C(=O)O)O1 (some centres not stated),"inconclusive: 6540 nM [inhibitor, partial curve]"
22,C[C@H]1C[C@@H]2[C@H]([C@@H](O)C[C@@]3(C)[C@H]2CC[C@]3(O)C(=O)CO)[C@@]2(C)C=CC(=O)C=C12,inactive

# 2 entries from above, bar-delimited:
row | SMILES | Potency
1 | O=C(CCCCCCC(=O)Nc1ccccc1)NO | inconclusive: 1840 nM [inhibitor, full curve, poor fit]
2 | CCc1cc(C(N)=O)ccc1-n1nc(C(C)C)c2c(-n3cnc(-c4cnn(C)c4)c3)ccnc21 | inconclusive: 368 nM [inhibitor, full curve, poor fit]
